These are yes or no findings as the source states them, for the method shown.
Biological target: neuraminidase (NA) of influenza A/WSN/1933 (H1N1) (Influenza A virus A/WSN/1933 (H1N1)) (UniProt P03470)
Assay: in situ cryo-electron tomography

Amino acid sequences for entries named in this document (tags omitted).
UniProt P03470: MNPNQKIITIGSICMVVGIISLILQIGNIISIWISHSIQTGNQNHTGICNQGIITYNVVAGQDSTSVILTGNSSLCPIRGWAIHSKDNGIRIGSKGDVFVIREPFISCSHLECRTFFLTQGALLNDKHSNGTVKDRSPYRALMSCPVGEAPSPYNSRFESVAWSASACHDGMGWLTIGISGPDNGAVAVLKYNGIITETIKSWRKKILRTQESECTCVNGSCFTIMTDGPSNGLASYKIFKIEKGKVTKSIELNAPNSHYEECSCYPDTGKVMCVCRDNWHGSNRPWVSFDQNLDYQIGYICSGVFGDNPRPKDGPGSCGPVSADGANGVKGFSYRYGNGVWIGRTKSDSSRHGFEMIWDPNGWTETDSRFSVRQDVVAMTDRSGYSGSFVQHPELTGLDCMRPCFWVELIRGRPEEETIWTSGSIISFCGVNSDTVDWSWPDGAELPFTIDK

In the case of “neuraminidase (NA) of influenza A/WSN/1933 (H1N1) (from UniProt P03470 1-453)”, the binding is reported as “no binding”.
